Laboratory results taken from patent US8389766B2, “Insecticidal compounds” (Syngenta Crop Protection LLC, priority 2006, dated 2013).
Some results were stated once for a whole list of compounds, not compound by compound.

Assays:
Assay type in all cases: in vivo
Heliothis virescens = Heliothis virescens (tobacco budworm) egg test on artificial diet; settings: 200 ppm (concentration in well 18 ppm), eggs 0-24 h old on artificial diet; egg mortality, larval mortality, growth regulation after 4 days
Plutella xylostella = Plutella xylostella (diamond back moth) larvae test on artificial diet; settings: 200 ppm (concentration in well 18 ppm), L2 larvae, larval mortality, growth regulation after 6 days
Tetranychus urticae = Tetranychus urticae (two-spotted spider mite) bean leaf disc spray test; settings: 200 ppm sprayed on bean leaf discs, mixed ages; egg, larval and adult mortality 8 days later
Thrips tabaci = Thrips tabaci (onion thrips) sunflower leaf disc spray test; settings: 200 ppm sprayed on sunflower leaf discs, mixed ages; mortality after 7 days
Spodoptera littoralis = Spodoptera littoralis (Egyptian cotton leafworm) cotton leaf disc spray test; settings: 200 ppm sprayed on cotton leaf discs, 5 L1 larvae; mortality, feeding behaviour, growth regulation 3 DAT
Diabrotica balteata = Diabrotica balteata (corn root worm) larvae test on artificial diet; settings: 200 ppm (concentration in well 18 ppm), L2 larvae, larval mortality, growth regulation after 5 days

Cc1ccccc1C(=O)Nc1cc(C(=O)Nc2c(C)cc(C(F)(C(F)(F)F)C(F)(F)F)cc2C)ccc1C#N [A4]
at least 80%: control of Heliothis virescens (Heliothis virescens) | control of Plutella xylostella (Plutella xylostella) | control of Tetranychus urticae (Tetranychus urticae) | control of Thrips tabaci (Thrips tabaci) | control of Spodoptera littoralis (Spodoptera littoralis) | control of Diabrotica balteata (Diabrotica balteata)

CCc1cc(C(F)(C(F)(F)F)C(F)(F)F)cc(CC)c1NC(=O)c1ccc(C#N)c(NC(=O)c2ccccc2C)c1 [A24]
at least 80%: control of Plutella xylostella (Plutella xylostella) | control of Tetranychus urticae (Tetranychus urticae) | control of Thrips tabaci (Thrips tabaci) | control of Spodoptera littoralis (Spodoptera littoralis) | control of Diabrotica balteata (Diabrotica balteata)

CCc1cc(C(F)(C(F)(F)F)C(F)(F)F)cc(CC)c1NC(=O)c1ccc(C#N)c(NC(=O)c2ccc([N+](=O)[O-])cc2)c1 [A26]
at least 80%: control of Plutella xylostella (Plutella xylostella) | control of Tetranychus urticae (Tetranychus urticae) | control of Thrips tabaci (Thrips tabaci) | control of Spodoptera littoralis (Spodoptera littoralis) | control of Diabrotica balteata (Diabrotica balteata)

CCc1cc(C(F)(C(F)(F)F)C(F)(F)F)cc(CC)c1NC(=O)c1ccc(C#N)c(NC(=O)c2ccc(F)cc2)c1 [A34]
at least 80%: control of Heliothis virescens (Heliothis virescens) | control of Plutella xylostella (Plutella xylostella) | control of Tetranychus urticae (Tetranychus urticae) | control of Thrips tabaci (Thrips tabaci) | control of Spodoptera littoralis (Spodoptera littoralis) | control of Diabrotica balteata (Diabrotica balteata)

CCc1cc(C(F)(C(F)(F)F)C(F)(F)C(F)(F)F)cc(C)c1NC(=O)c1ccc(C#N)c(NC(=O)c2ccco2)c1 (centres unmarked) [A65]
at least 80%: control of Heliothis virescens (Heliothis virescens) | control of Plutella xylostella (Plutella xylostella) | control of Tetranychus urticae (Tetranychus urticae) | control of Thrips tabaci (Thrips tabaci) | control of Spodoptera littoralis (Spodoptera littoralis) | control of Diabrotica balteata (Diabrotica balteata)

CCc1cc(C(F)(C(F)(F)F)C(F)(F)C(F)(F)F)cc(C)c1NC(=O)c1ccc(C#N)c(NC(=O)c2ccccc2C(F)(F)F)c1 (centres unmarked) [A73]
at least 80%: control of Heliothis virescens (Heliothis virescens) | control of Plutella xylostella (Plutella xylostella) | control of Tetranychus urticae (Tetranychus urticae) | control of Thrips tabaci (Thrips tabaci) | control of Spodoptera littoralis (Spodoptera littoralis) | control of Diabrotica balteata (Diabrotica balteata)

CCc1cc(C(F)(C(F)(F)F)C(F)(F)C(F)(F)F)cc(C)c1NC(=O)c1ccc(C#N)c(NC(=O)c2ccc(C(=O)OC)cc2)c1 (centres unmarked) [A77]
at least 80%: control of Heliothis virescens (Heliothis virescens) | control of Plutella xylostella (Plutella xylostella) | control of Tetranychus urticae (Tetranychus urticae) | control of Thrips tabaci (Thrips tabaci) | control of Spodoptera littoralis (Spodoptera littoralis) | control of Diabrotica balteata (Diabrotica balteata)

Cc1ccccc1C(=O)Nc1cc(C(=O)Nc2c(C)cc(C(F)(C(F)(F)F)C(F)(F)F)cc2Br)ccc1C#N [A82]
at least 80%: control of Heliothis virescens (Heliothis virescens) | control of Plutella xylostella (Plutella xylostella) | control of Tetranychus urticae (Tetranychus urticae) | control of Thrips tabaci (Thrips tabaci) | control of Spodoptera littoralis (Spodoptera littoralis) | control of Diabrotica balteata (Diabrotica balteata)

Cc1cc(C(F)(C(F)(F)F)C(F)(F)F)cc(Br)c1NC(=O)c1ccc(C#N)c(NC(=O)c2ccccc2Cl)c1 [A83]
at least 80%: control of Heliothis virescens (Heliothis virescens) | control of Plutella xylostella (Plutella xylostella) | control of Tetranychus urticae (Tetranychus urticae) | control of Thrips tabaci (Thrips tabaci) | control of Spodoptera littoralis (Spodoptera littoralis) | control of Diabrotica balteata (Diabrotica balteata)

Cc1cc(C(F)(C(F)(F)F)C(F)(F)F)cc(Br)c1NC(=O)c1ccc(C#N)c(NC(=O)c2ccc([N+](=O)[O-])cc2)c1 [A85]
at least 80%: control of Heliothis virescens (Heliothis virescens) | control of Plutella xylostella (Plutella xylostella) | control of Tetranychus urticae (Tetranychus urticae) | control of Thrips tabaci (Thrips tabaci) | control of Spodoptera littoralis (Spodoptera littoralis) | control of Diabrotica balteata (Diabrotica balteata)

Cc1cc(C(F)(C(F)(F)F)C(F)(F)F)cc(Br)c1NC(=O)c1ccc(C#N)c(NC(=O)c2ccc([N+](=O)[O-])cc2Cl)c1 [A87]
at least 80%: control of Heliothis virescens (Heliothis virescens) | control of Plutella xylostella (Plutella xylostella) | control of Tetranychus urticae (Tetranychus urticae) | control of Thrips tabaci (Thrips tabaci) | control of Spodoptera littoralis (Spodoptera littoralis) | control of Diabrotica balteata (Diabrotica balteata)

Cc1cc(C(F)(C(F)(F)F)C(F)(F)F)cc(Br)c1NC(=O)c1ccc(C#N)c(NC(=O)c2ccc(C(F)(F)F)cc2)c1 [A91]
at least 80%: control of Heliothis virescens (Heliothis virescens) | control of Plutella xylostella (Plutella xylostella) | control of Tetranychus urticae (Tetranychus urticae) | control of Thrips tabaci (Thrips tabaci) | control of Spodoptera littoralis (Spodoptera littoralis) | control of Diabrotica balteata (Diabrotica balteata)

Cc1cc(C(F)(C(F)(F)F)C(F)(F)F)cc(Br)c1NC(=O)c1ccc(C#N)c(NC(=O)c2ccccc2)c1 [A94]
at least 80%: control of Heliothis virescens (Heliothis virescens) | control of Plutella xylostella (Plutella xylostella) | control of Tetranychus urticae (Tetranychus urticae) | control of Thrips tabaci (Thrips tabaci) | control of Spodoptera littoralis (Spodoptera littoralis) | control of Diabrotica balteata (Diabrotica balteata)

Cc1cc(C(F)(C(F)(F)F)C(F)(F)F)cc(Br)c1NC(=O)c1ccc(C#N)c(NC(=O)c2ccc(F)cc2)c1 [A95]
at least 80%: control of Heliothis virescens (Heliothis virescens) | control of Plutella xylostella (Plutella xylostella) | control of Tetranychus urticae (Tetranychus urticae) | control of Thrips tabaci (Thrips tabaci) | control of Spodoptera littoralis (Spodoptera littoralis) | control of Diabrotica balteata (Diabrotica balteata)

Cc1cc(C(F)(C(F)(F)F)C(F)(F)F)cc(Br)c1NC(=O)c1ccc(C#N)c(NC(=O)c2ccc(F)cc2Cl)c1 [A97]
at least 80%: control of Heliothis virescens (Heliothis virescens) | control of Plutella xylostella (Plutella xylostella) | control of Tetranychus urticae (Tetranychus urticae) | control of Thrips tabaci (Thrips tabaci) | control of Spodoptera littoralis (Spodoptera littoralis) | control of Diabrotica balteata (Diabrotica balteata)

Cc1cc(C(F)(C(F)(F)F)C(F)(F)F)cc(Br)c1NC(=O)c1ccc(C#N)c(NC(=O)c2snnc2C)c1 [A98]
at least 80%: control of Heliothis virescens (Heliothis virescens) | control of Plutella xylostella (Plutella xylostella) | control of Tetranychus urticae (Tetranychus urticae) | control of Thrips tabaci (Thrips tabaci) | control of Spodoptera littoralis (Spodoptera littoralis) | control of Diabrotica balteata (Diabrotica balteata)

Cc1cc(C(F)(C(F)(F)F)C(F)(F)F)cc(Br)c1NC(=O)c1ccc(C#N)c(NC(=O)c2cccc(F)c2F)c1 [A99]
at least 80%: control of Heliothis virescens (Heliothis virescens) | control of Plutella xylostella (Plutella xylostella) | control of Tetranychus urticae (Tetranychus urticae) | control of Thrips tabaci (Thrips tabaci) | control of Spodoptera littoralis (Spodoptera littoralis) | control of Diabrotica balteata (Diabrotica balteata)

COCc1cc(C(F)(C(F)(F)F)C(F)(F)F)cc(C)c1NC(=O)c1ccc(C#N)c(NC(=O)c2ccccc2Cl)c1 [A165]
at least 80%: control of Heliothis virescens (Heliothis virescens) | control of Plutella xylostella (Plutella xylostella) | control of Tetranychus urticae (Tetranychus urticae) | control of Spodoptera littoralis (Spodoptera littoralis) | control of Diabrotica balteata (Diabrotica balteata)

COCc1cc(C(F)(C(F)(F)F)C(F)(F)F)cc(C)c1NC(=O)c1ccc(C#N)c(NC(=O)c2ccccc2C(F)(F)F)c1 [A175]
at least 80%: control of Heliothis virescens (Heliothis virescens) | control of Plutella xylostella (Plutella xylostella) | control of Tetranychus urticae (Tetranychus urticae) | control of Spodoptera littoralis (Spodoptera littoralis) | control of Diabrotica balteata (Diabrotica balteata)

COCc1cc(C(F)(C(F)(F)F)C(F)(F)F)cc(C)c1NC(=O)c1ccc(C#N)c(NC(=O)c2ccc(F)cc2F)c1 [A179]
at least 80%: control of Heliothis virescens (Heliothis virescens) | control of Plutella xylostella (Plutella xylostella) | control of Tetranychus urticae (Tetranychus urticae) | control of Spodoptera littoralis (Spodoptera littoralis) | control of Diabrotica balteata (Diabrotica balteata)

CCc1cc(C(F)(C(F)(F)F)C(F)(F)C(F)(F)F)cc(C)c1NC(=O)c1ccc(C#N)c(NC(=O)c2cc(C)cc(C)c2)c1 (centres unmarked) [A197]
at least 80%: control of Heliothis virescens (Heliothis virescens) | control of Plutella xylostella (Plutella xylostella) | control of Tetranychus urticae (Tetranychus urticae) | control of Thrips tabaci (Thrips tabaci) | control of Spodoptera littoralis (Spodoptera littoralis)

Cc1cc(C(F)(C(F)(F)F)C(F)(F)F)cc(C)c1NC(=O)c1ccc(C#N)c(NC(=O)c2cccnc2Cl)c1 [A200]
at least 80%: control of Heliothis virescens (Heliothis virescens) | control of Plutella xylostella (Plutella xylostella) | control of Tetranychus urticae (Tetranychus urticae) | control of Spodoptera littoralis (Spodoptera littoralis) | control of Diabrotica balteata (Diabrotica balteata)

Cc1cc(C(F)(C(F)(F)F)C(F)(F)F)cc(C)c1NC(=O)c1ccc(C#N)c(NC(=O)c2cccc(Cl)c2C)c1 [A206]
at least 80%: control of Heliothis virescens (Heliothis virescens) | control of Plutella xylostella (Plutella xylostella) | control of Tetranychus urticae (Tetranychus urticae) | control of Spodoptera littoralis (Spodoptera littoralis) | control of Diabrotica balteata (Diabrotica balteata)

Cc1cc(C(F)(C(F)(F)F)C(F)(F)F)cc(C)c1NC(=O)c1ccc(C#N)c(NC(=O)c2c(F)ccc(F)c2F)c1 [A214]
at least 80%: control of Heliothis virescens (Heliothis virescens) | control of Plutella xylostella (Plutella xylostella) | control of Tetranychus urticae (Tetranychus urticae) | control of Spodoptera littoralis (Spodoptera littoralis) | control of Diabrotica balteata (Diabrotica balteata)

Cc1cc(C(F)(C(F)(F)F)C(F)(F)F)cc(C)c1NC(=O)c1cc(F)c(C#N)c(NC(=O)c2ccccc2)c1F [E36, 3-benzamido-4-cyano-2,5-difluoro-N-[2,6-dimethyl-4-(1,2,2,2-tetrafluoro-1-trifluoromethyl-ethyl)-phenyl]-benzamide]
at least 80%: control of Heliothis virescens (Heliothis virescens) | control of Plutella xylostella (Plutella xylostella) | control of Tetranychus urticae (Tetranychus urticae) | control of Spodoptera littoralis (Spodoptera littoralis) | control of Diabrotica balteata (Diabrotica balteata)
